Results are given in words; binding and its absence hold for the method and conditions named. Binding seen in cells or lysates may run through a third protein. Some results given as binding are weak or reduced against the parent protein; the word gives no strength. Sequences can lack the tags named with a protein.
Key:
[1] = molecular target: T1, Venus-tagged mutant HURP (last 12 amino acids deleted) (human) (UniProt Q15398); assay: co-IP
T1 sequence: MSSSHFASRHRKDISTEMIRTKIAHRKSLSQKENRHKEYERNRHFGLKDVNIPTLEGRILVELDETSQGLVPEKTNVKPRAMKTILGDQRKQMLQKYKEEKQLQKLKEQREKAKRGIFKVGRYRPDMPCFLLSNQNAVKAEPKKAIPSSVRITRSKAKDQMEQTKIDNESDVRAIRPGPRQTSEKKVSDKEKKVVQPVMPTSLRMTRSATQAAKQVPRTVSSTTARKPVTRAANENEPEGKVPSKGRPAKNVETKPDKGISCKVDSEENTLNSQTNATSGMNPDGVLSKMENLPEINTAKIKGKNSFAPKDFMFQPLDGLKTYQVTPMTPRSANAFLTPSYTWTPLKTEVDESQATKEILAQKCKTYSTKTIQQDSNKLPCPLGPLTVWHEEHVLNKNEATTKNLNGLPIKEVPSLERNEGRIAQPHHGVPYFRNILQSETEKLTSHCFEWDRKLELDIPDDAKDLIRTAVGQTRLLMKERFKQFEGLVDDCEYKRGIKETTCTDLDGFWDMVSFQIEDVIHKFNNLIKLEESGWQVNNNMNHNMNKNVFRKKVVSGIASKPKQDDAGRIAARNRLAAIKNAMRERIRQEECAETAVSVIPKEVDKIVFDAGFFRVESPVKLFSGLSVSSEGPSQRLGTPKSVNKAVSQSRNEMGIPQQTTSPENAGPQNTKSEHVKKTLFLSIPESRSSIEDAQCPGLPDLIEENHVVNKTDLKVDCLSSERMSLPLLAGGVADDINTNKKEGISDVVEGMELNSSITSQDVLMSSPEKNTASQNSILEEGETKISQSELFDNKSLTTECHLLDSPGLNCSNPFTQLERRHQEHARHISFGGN

Amino acid sequences for entries named in this document (tags omitted).
UniProt Q00610: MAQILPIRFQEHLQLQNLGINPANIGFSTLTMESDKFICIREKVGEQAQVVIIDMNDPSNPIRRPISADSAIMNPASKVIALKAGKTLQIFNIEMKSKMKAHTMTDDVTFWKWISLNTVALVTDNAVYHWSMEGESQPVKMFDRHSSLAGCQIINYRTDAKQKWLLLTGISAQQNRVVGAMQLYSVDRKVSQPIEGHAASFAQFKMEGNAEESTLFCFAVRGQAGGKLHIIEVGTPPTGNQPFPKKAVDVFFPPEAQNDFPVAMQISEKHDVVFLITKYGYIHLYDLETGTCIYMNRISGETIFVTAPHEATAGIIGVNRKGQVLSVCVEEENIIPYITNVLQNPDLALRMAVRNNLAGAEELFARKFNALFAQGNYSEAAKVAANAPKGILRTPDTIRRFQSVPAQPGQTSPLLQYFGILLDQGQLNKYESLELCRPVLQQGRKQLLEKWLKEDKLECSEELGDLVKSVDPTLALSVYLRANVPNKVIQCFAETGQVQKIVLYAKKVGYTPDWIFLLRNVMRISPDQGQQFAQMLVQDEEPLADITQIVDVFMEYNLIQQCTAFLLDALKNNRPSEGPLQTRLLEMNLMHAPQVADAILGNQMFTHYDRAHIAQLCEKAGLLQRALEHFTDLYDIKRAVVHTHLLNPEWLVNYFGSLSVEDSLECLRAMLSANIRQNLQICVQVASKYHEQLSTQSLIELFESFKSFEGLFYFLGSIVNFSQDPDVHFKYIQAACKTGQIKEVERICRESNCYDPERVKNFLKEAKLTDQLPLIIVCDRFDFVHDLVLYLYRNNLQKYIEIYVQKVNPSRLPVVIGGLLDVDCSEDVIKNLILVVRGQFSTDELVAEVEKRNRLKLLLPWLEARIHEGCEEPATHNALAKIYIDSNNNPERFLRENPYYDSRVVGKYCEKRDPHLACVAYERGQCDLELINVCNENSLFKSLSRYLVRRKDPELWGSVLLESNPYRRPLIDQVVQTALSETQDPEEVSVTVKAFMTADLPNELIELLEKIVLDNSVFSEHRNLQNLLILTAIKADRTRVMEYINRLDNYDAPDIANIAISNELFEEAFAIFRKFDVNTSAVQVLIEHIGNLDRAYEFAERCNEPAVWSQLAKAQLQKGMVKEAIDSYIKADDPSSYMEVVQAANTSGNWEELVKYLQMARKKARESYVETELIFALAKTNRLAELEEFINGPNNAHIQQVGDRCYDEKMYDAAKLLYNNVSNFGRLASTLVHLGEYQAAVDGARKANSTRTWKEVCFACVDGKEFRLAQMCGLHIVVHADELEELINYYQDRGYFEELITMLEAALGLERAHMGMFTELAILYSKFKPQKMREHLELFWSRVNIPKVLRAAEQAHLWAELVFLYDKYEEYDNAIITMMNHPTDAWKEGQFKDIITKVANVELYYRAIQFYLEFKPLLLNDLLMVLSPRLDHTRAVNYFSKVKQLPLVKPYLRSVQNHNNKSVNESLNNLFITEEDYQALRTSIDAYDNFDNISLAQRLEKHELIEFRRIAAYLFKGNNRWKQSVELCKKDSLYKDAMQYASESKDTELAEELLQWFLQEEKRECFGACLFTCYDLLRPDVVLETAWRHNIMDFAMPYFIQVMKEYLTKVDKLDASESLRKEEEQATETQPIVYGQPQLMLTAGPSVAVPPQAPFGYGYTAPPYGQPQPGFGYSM

[2] = molecular target: T2, Venus-tagged wild-type HURP (human) (UniProt Q15398); assay: co-IP
T2 sequence: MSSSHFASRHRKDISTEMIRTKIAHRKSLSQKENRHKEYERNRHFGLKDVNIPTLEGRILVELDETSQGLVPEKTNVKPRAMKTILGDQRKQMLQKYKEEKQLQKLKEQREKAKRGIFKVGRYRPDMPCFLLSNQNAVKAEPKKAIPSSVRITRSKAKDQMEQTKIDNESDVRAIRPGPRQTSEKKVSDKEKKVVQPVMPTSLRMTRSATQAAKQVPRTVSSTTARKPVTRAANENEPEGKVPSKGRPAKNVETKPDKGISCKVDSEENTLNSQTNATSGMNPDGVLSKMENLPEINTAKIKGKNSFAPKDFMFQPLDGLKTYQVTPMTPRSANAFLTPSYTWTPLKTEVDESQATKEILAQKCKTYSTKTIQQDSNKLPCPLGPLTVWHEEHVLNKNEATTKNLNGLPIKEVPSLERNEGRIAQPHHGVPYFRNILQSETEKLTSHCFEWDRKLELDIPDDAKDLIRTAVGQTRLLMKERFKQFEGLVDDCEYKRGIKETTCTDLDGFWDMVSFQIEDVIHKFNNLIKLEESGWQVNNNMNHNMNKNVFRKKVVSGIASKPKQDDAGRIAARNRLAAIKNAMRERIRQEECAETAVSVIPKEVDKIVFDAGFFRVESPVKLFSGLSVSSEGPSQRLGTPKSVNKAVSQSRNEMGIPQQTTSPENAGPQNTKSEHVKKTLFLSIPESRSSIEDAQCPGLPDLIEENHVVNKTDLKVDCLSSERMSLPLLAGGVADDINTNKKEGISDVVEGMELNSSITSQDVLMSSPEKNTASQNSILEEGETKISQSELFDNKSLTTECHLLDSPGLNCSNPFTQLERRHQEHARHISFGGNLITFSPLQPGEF

## clathrin (endogenous, detected with anti-CHC) (from UniProt Q00610 1-1675)
[1]
  binding: no binding
[2]
  binding: binds

Reference: paper doi:10.1101/2022.06.08.495335
